Assay results: PubChem BioAssay AID330 (DTP/NCI, 2004)
The list does not hold the whole screen: its compounds were picked by chemical class. Other doses and runs of a compound may be missing. T/C: endpoint of the treated group in % of that of the vehicle group. Some doses have a count of surviving animals in place of a T/C: the source holds a T/C of zero for them, seemingly a mark for toxic or unscored doses. Some doses without a T/C left all or most animals alive at the check, yet need not have been tolerated: survival well below the control is almost never listed, so the zero probably covers shortened survival too. Counts of survivors are from the toxicity check (mostly the fifth day) where no day follows; animals may have died later. Schedule codes are those of the source, taken here to give the interval after Q, in days (D) or hours (H), and the number of doses after X. Where survival is the endpoint, this PubChem deposit counts one and a half times the control or more as active, and values a quarter to a half above the control carry no call in these data; other NCI protocols may use other cut-offs. Some entries hold several experiments; the results are listed from low to high. Some entries show no survivor count and are marked so; the dose need not have been tolerated. Some T/C values are followed by the survivors on the day toxicity was checked, most often the fifth; where neither a count nor a note follows, no animal had died by that day.

Test system: P388 leukemia ip, CD2F1 mice, survival T/C
Experiment: NCI In Vivo Anticancer Drug Screen. Data for tumor model P388 Leukemia (intraperitoneal) in CD2F1 (CDF1) mice
Details: T/C endpoint: median survival time, higher T/C = longer survival
[1] = dose: 12.5 mg/kg/injection, schedule: Q01DX009 (ip), vehicle: saline with Tween-80
[2] = dose: 25.0 mg/kg/injection, schedule: Q01DX009 (ip), vehicle: saline with Tween-80
[3] = dose: 50.0 mg/kg/injection, schedule: Q01DX009 (ip), vehicle: saline with Tween-80
[4] = dose: 10.0 mg/kg/injection, schedule: Q01DX009 (ip), vehicle: Klucel (hydroxypropylcellulose) (HPC)
[5] = dose: 20.0 mg/kg/injection, schedule: Q01DX009 (ip), vehicle: Klucel (hydroxypropylcellulose) (HPC)
[6] = dose: 40.0 mg/kg/injection, schedule: Q01DX009 (ip), vehicle: Klucel (hydroxypropylcellulose) (HPC)

In the case of CN=C(NP(=O)(Oc1ccccc1)Oc1ccccc1)Oc1ccccc1, the T/C (dose: 12.5 mg/kg/injection, schedule: Q01DX009 (ip), vehicle: distilled water + Tween-80) is reported as 105 % of control, the T/C (dose: 25.0 mg/kg/injection, schedule: Q01DX009 (ip), vehicle: distilled water + Tween-80) is reported as 99 % of control and the T/C (dose: 50.0 mg/kg/injection, schedule: Q01DX009 (ip), vehicle: distilled water + Tween-80) is reported as 113 % of control. For the same compound, the T/C (dose: 100.0 mg/kg/injection, schedule: Q01DX009 (ip), vehicle: distilled water + Tween-80) was 93 % of control.
In the case of CC(=O)c1cccc2ccc(N(CCCl)CCCl)cc12, the T/C (dose: 50.0 mg/kg/injection, schedule: Q01DX009 (ip), vehicle: Klucel (hydroxypropylcellulose) (HPC)) is reported as 100 and 111 % of control, the T/C (dose: 100.0 mg/kg/injection, schedule: Q01DX009 (ip), vehicle: Klucel (hydroxypropylcellulose) (HPC)) is reported as 110 and 129 % of control and the T/C (dose: 200.0 mg/kg/injection, schedule: Q01DX009 (ip), vehicle: Klucel (hydroxypropylcellulose) (HPC)) is reported as 108 and 148 % of control. The T/C (dose: 400.0 mg/kg/injection, schedule: Q01DX009 (ip), vehicle: Klucel (hydroxypropylcellulose) (HPC)) was 121 % of control.
In the case of O=[N+]([O-])c1ccc2c(Cl)n([N+](=O)[O-])nc2c1, the T/C [1] is reported as 100 % of control, the T/C [2] is reported as 98 % of control and the T/C [3] is reported as 98 % of control.
For CC(C)OP(C)(=O)O.[Y], the T/C [1] was 87 % of control [survivor count not shown], the T/C [2] was 96 [survivor count not shown] and 98 % of control [survivor count not shown] and the T/C [3] was 86 [survivor count not shown] and 91 % of control [survivor count not shown]. For the same compound, the T/C (dose: 100.0 mg/kg/injection, schedule: Q01DX009 (ip), vehicle: saline with Tween-80) was 92 % of control [survivor count not shown] and the T/C (dose: 200.0 mg/kg/injection, schedule: Q01DX009 (ip), vehicle: saline with Tween-80) was 94 % of control [survivor count not shown].
For Cc1cccc(N(CCCl)CCCl)c1, the T/C (dose: 5.0 mg/kg/injection, schedule: Q01DX009 (ip), vehicle: Klucel (hydroxypropylcellulose) (HPC)) was 104 % of control, the T/C [4] was 114 and 144 % of control and the survivor count [4] was 0 of 6. For the same compound, the T/C [5] was 141 [4 of 6 alive] and 154 % of control, the survivor count [5] was 0 of 6 and the T/C [6] was 178 and 184 % of control. The survivor count [6] was 0 of 6.
For NC1(C(=O)O)CC2CCCC(C1)N2CCCl (stereo not drawn), the T/C (dose: 100.0 mg/kg/injection, schedule: Q01DX001 (ip), vehicle: saline) was 104 % of control, the T/C (dose: 200.0 mg/kg/injection, schedule: Q01DX001 (ip), vehicle: saline) was 114 % of control and the survivor count (dose: 400.0 mg/kg/injection, schedule: Q01DX001 (ip), vehicle: saline) was 1 of 6.
For CN1C(C)(C)CC(O)(c2ccccc2)CC1(C)C.O=[N+]([O-])c1cc([N+](=O)[O-])c(O)c([N+](=O)[O-])c1, the T/C (dose: 60.0 mg/kg/injection, schedule: Q01DX005 (ip), vehicle: saline with Tween-80) was 109 % of control, the T/C (dose: 120.0 mg/kg/injection, schedule: Q01DX005 (ip), vehicle: saline with Tween-80) was 115 % of control [5 of 6 alive] and the survivor count (dose: 240.0 mg/kg/injection, schedule: Q01DX005 (ip), vehicle: saline with Tween-80) was 0 of 6.
In the case of CCOP(OCC)c1ccc(N(C)C)cc1, the T/C (dose: 12.5 mg/kg/injection, schedule: Q01DX001 (ip), vehicle: Klucel (hydroxypropylcellulose) (HPC)) is reported as 95 % of control, the T/C (dose: 25.0 mg/kg/injection, schedule: Q01DX001 (ip), vehicle: Klucel (hydroxypropylcellulose) (HPC)) is reported as 99 % of control and the T/C (dose: 50.0 mg/kg/injection, schedule: Q01DX001 (ip), vehicle: Klucel (hydroxypropylcellulose) (HPC)) is reported as 104 % of control.
For COP(C)(=O)O.[U], the T/C (dose: 6.25 mg/kg/injection, schedule: Q04DX003 (ip), vehicle: saline with Tween-80) was 87 [survivor count not shown], 100 [survivor count not shown], 113 % of control [survivor count not shown], the T/C (dose: 12.5 mg/kg/injection, schedule: Q04DX003 (ip), vehicle: saline with Tween-80) was 99 [survivor count not shown], 116 [survivor count not shown], 126 % of control [survivor count not shown] and the T/C (dose: 25.0 mg/kg/injection, schedule: Q04DX003 (ip), vehicle: saline with Tween-80) was 92 [survivor count not shown], 108 [survivor count not shown], 113 % of control [survivor count not shown]. For the same compound, the T/C (dose: 50.0 mg/kg/injection, schedule: Q04DX003 (ip), vehicle: saline with Tween-80) was 117 % of control [survivor count not shown].
For O=C1/C(=C/N(CCCl)CCCl)COc2ccccc21, the T/C (dose: 3.13 mg/kg/injection, schedule: Q01DX005 (ip), vehicle: Klucel (hydroxypropylcellulose) (HPC)) was 100 % of control, the T/C (dose: 6.25 mg/kg/injection, schedule: Q01DX005 (ip), vehicle: Klucel (hydroxypropylcellulose) (HPC)) was 101 % of control and the T/C (dose: 12.5 mg/kg/injection, schedule: Q01DX005 (ip), vehicle: Klucel (hydroxypropylcellulose) (HPC)) was 101 % of control. For the same compound, the T/C (dose: 25.0 mg/kg/injection, schedule: Q01DX005 (ip), vehicle: Klucel (hydroxypropylcellulose) (HPC)) was 100 % of control, the survivor count (dose: 25.0 mg/kg/injection, schedule: Q04DX003 (ip), vehicle: Klucel (hydroxypropylcellulose) (HPC)) was 5 of 6 and the survivor count (dose: 50.0 mg/kg/injection, schedule: Q04DX003 (ip), vehicle: Klucel (hydroxypropylcellulose) (HPC)) was 1 of 1. The survivor count (dose: 100.0 mg/kg/injection, schedule: Q04DX003 (ip), vehicle: Klucel (hydroxypropylcellulose) (HPC)) was 0 of 6.
